These results are taken from PMC6744478.

Amino acid sequences for entries named in this document (tags omitted). Residues count along the entry.
UniProt O14775, residues 43-395: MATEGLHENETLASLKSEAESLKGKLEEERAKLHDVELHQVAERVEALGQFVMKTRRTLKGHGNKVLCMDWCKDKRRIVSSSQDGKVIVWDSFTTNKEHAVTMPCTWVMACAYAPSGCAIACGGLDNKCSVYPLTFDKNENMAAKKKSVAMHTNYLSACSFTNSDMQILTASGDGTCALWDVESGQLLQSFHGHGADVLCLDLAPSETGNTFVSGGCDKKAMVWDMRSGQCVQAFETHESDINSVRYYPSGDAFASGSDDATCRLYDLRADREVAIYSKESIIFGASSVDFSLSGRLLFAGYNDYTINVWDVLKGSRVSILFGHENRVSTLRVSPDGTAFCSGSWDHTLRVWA

These are yes or no findings as the source states them, for the method shown. Some binding calls cover weakened binding; strength is not graded here.

This assay concerns the target Gβ5 (GNB5, short form), N-terminally tagged (human) (UniProt O14775). The experiment in a line: co-purification; R7-RGS protein expressed with N-terminally HIS- or TS-tagged Gβ5 in Expi293 cells; duplex purified on HisTrap HP or StrepTrap HP (washes with ATP/MgCl2 and 4.5 M NaCl), SEC if needed.

B1: RGS9-2 (protein, UniProt O75916 1-674)
chain: MTIRHQGQQYRPRMAFLQKIEALVKDMQNPETGVRMQNQRVLVTSVPHAMTGSDVLQWIVQRLWISSLEAQNLGNFIVRYGYIYPLQDPKNLILKPDGSLYRFQTPYFWPTQQWPAEDTDYAIYLAKRNIKKKGILEEYEKENYNFLNQKMNYKWDFVIMQAKEQYRAGKERNKADRYALDCQEKAYWLVHRCPPGMDNVLDYGLDRVTNPNEVKVNQKQTVVAVKKEIMYYQQALMRSTVKSSVSLGGIVKYSEQFSSNDAIMSGCLPSNPWITDDTQFWDLNAKLVEIPTKMRVERWAFNFSELIRDPKGRQSFQYFLKKEFSGENLGFWEACEDLKYGDQSKVKEKAEEIYKLFLAPGARRWINIDGKTMDITVKGLKHPHRYVLDAAQTHIYMLMKKDSYARYLKSPIYKDMLAKAIEPQETTKKSSTLPFMRRHLRSSPSPVILRQLEEEAKAREAANTVDITQPGQHMAPSPHLTVYTGTCMPPSPSSPFSSSCRSPRKPFASPSRFIRRPSTTICPSPIRVALESSSGLEQKGECSGSMAPRGPSVTESSEASLDTSWPRSRPRAPPKARMALSFSRFLRRGCLASPVFARLSPKCPAVSHGRVQPLGDVGQQLPRLKSKRVANFFQIKMDVPTGSGTCLMDSEDAGTGESGDRATEKEVICPWESL
For the molecule B1, the binding result is “binds”.

B2: RGS6 (protein, UniProt P49758 1-472)
chain: MAQGSGDQRAVGVADPEESSPNMIVYCKIEDIITKMQDDKTGGVPIRTVKSFLSKIPSVVTGTDIVQWLMKNLSIEDPVEAIHLGSLIAAQGYIFPISDHVLTMKDDGTFYRFQAPYFWPSNCWEPENTDYAIYLCKRTMQNKARLELADYEAENLARLQRAFARKWEFIFMQAEAQVKIDRKKDKTERKILDSQERAFWDVHRPVPGCVNTTEMDIRKCRRLKNPQKVKKSVYGVTEESQAQSPVHVLSQPIRKTTKEDIRKQITFLNAQIDRHCLKMSKVAESLIAYTEQYVEYDPLITPAEPSNPWISDDVALWDIEMSKEPSQQRVKRWGFSFDEILKDQVGRDQFLRFLESEFSSENLRFWLAVQDLKKQPLQDVAKRVEEIWQEFLAPGAPSAINLDSHSYEITSQNVKDGGRYTFEDAQEHIYKLMKSDSYARFLRSNAYQDLLLAKKKGKSLAGKRLTGLMQSS
Turning to B2, the binding entry is “binds”.
